From article PMC5316833
These are yes or no findings as the source states them, for the method shown. In cells and extracts the contact can be indirect. Some binding calls cover weakened binding; strength is not graded here.

Sequences of proteins named here, by UniProt entry; tags and fusion partners are left off.
UniProt Q86WV6: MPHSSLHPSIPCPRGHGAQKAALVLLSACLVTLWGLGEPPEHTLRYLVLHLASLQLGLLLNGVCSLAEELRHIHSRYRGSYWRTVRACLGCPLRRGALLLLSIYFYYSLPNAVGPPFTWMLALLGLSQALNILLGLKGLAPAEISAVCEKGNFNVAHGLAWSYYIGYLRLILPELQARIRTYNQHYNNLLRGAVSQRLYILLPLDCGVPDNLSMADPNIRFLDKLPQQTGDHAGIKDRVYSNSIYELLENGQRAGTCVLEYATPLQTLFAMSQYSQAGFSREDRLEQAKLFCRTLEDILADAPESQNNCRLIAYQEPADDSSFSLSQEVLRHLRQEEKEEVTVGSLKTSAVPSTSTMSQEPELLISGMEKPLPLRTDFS
UniProt Q16666: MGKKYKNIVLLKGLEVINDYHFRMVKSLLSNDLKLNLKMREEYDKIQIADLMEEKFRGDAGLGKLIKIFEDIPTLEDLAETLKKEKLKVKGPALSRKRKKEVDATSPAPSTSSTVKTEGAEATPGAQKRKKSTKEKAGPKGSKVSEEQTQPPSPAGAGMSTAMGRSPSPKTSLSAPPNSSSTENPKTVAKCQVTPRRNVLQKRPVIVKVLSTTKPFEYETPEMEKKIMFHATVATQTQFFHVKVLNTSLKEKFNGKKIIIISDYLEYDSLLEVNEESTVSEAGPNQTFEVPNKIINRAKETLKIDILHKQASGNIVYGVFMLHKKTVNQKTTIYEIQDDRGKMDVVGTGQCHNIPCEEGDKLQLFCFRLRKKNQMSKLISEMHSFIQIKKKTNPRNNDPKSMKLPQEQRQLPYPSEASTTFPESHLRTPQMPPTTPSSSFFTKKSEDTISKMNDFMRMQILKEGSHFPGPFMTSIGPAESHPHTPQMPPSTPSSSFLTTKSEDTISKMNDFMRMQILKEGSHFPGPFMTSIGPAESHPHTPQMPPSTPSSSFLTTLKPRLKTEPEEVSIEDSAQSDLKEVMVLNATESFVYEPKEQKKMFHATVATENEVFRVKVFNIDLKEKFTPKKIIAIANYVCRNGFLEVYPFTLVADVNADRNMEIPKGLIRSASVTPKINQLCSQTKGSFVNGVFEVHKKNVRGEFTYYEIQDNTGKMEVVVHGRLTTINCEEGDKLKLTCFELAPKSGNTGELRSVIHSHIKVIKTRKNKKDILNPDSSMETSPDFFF

Target: STING, endogenous in HaCaT keratinocytes (human (endogenous in HaCaT)) (UniProt Q86WV6)
Test: co-IP; STING immunoprecipitated from HaCaT cells transfected with 5 ug/ml HT DNA for the times indicated; western blot

interferon-γ inducible protein 16 (IFI16), endogenous in HaCaT keratinocytes (from UniProt Q16666 1-785)
binding: binds weakly
